Ki data for one molecule are collected here from ChEMBL document CHEMBL1125116 (J Med Chem, 1990).

The chains behind the UniProt entries cited, without tags or fusion partners.
UniProt P61169, whole entry: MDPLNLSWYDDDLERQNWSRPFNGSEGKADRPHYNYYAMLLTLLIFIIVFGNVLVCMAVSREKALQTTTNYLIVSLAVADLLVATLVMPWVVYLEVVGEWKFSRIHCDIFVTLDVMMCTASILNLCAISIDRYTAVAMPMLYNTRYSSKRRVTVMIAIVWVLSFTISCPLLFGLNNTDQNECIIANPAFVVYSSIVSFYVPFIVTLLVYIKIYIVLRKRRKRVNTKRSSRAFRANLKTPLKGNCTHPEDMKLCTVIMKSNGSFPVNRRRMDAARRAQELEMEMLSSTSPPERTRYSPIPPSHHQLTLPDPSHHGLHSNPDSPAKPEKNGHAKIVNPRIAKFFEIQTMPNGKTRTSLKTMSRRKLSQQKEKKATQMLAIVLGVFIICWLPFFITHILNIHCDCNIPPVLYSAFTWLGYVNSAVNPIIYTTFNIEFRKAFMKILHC

The target in the test is D(2) dopamine receptor (Rattus norvegicus, UniProt P61169). Put plainly: Competitive binding assay against Dopamine receptor D2 in rat striatal membranes and [125I]-IBF radioligand. It is filed as cell membranes, Striatum, Membrane.

Molecules are shown by their SMILES.

In general, Ki refers to a dissociation constant, usually derived from enzyme kinetics or from competition with a known ligand. Low readings indicate higher affinity, high ones lower affinity. In turn, `CC(C)NCC(O)COc1cccc2ccccc12` (stereo unspecified) [PROPRANOLOL] showed an inhibitory constant (Ki) above 10 µM.
